Data as given in PubChem BioAssay AID328 (DTP/NCI, 2004).
The list does not hold the whole screen: it is rich in T/C values a quarter to a half above the control, in often repeated tests (any T/C) and in doses without a T/C. Further doses and runs are listed elsewhere. T/C is the treated group as % of the vehicle group. Some doses have a count of surviving animals in place of a T/C: the source files T/C as zero there, which appears to mark a toxic dose or a test without result, not a measured value. Some survivor counts are full or nearly so, which does not show that the dose was tolerated: the source hardly ever lists a survival T/C far under the control, and the zero likely stands for such cases as well. Counts of survivors are from the toxicity check (mostly the fifth day) where no day follows; animals may have died later. Schedules are NCI's codes, read here as Q, the interval in days (D) or hours (H), X, the number of doses. Some doses were run more than once; the results are listed from low to high. For survival time, the PubChem record calls one and a half times the control and up active, and a quarter to a half above the control has no call in these data; cut-offs in other NCI protocols can differ. Some T/C values are followed by the survivors on the day toxicity was checked, most often the fifth; where none is given, no animal had died by that day.

System: BDF1 mice, P388 leukemia ip, median survival T/C
Assay: NCI In Vivo Anticancer Drug Screen. Data for tumor model P388 Leukemia (intraperitoneal) in B6D2F1 (BDF1) mice
Conditions: T/C endpoint: median survival time, higher T/C = longer survival
Method in brief: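 Each value expresses how treatment altered survival: treated-mouse outcome over vehicle-mouse outcome, both groups bearing the transplanted tumour.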

[1] = dose: 12.5 mg/kg/injection, schedule: Q01DX009 (ip), vehicle: saline
[2] = dose: 200.0 mg/kg/injection, schedule: Q04DX003 (ip), vehicle: saline
[3] = dose: 200.0 mg/kg/injection, schedule: Q01DX009 (ip), vehicle: saline
[4] = dose: 25.0 mg/kg/injection, schedule: Q01DX009 (ip), vehicle: saline
[5] = dose: 50.0 mg/kg/injection, schedule: Q01DX009 (ip), vehicle: saline
[6] = dose: 50.0 mg/kg/injection, schedule: Q01DX009 (ip), vehicle: saline with Tween-80
[7] = dose: 200.0 mg/kg/injection, schedule: Q01DX009 (ip), vehicle: saline with Tween-80
[8] = dose: 100.0 mg/kg/injection, schedule: Q01DX009 (ip), vehicle: saline

For `CN=C(N)c1ccc(N=C(N)c2ccc(-c3ccc(C(N)=Nc4ccc(C(N)=NC)cc4)cc3)cc2)cc1`, which T/C (dose: 6.25 mg/kg/injection, schedule: Q01DX009 (ip), vehicle: saline) is on record?
The T/C was 134 % of control.

What about the T/C (dose: 8.0 mg/kg/injection, schedule: Q01DX009 (ip), vehicle: saline) of the same molecule?
Its T/C is 135 % of control.

And the T/C (dose: 12.0 mg/kg/injection, schedule: Q01DX009 (ip), vehicle: saline)?
The T/C was 135 % of control.

What about the T/C [1] of the same molecule?
The T/C was 138 % of control.

What about the survivor count (dose: 25.0 mg/kg/injection, schedule: Q04DX003 (ip), vehicle: saline) of the same molecule?
Its survivor count is 2 of 6.

What about the survivor count (dose: 50.0 mg/kg/injection, schedule: Q04DX003 (ip), vehicle: saline) of the same molecule?
Its survivor count is 0 of 6.

And the survivor count (dose: 100.0 mg/kg/injection, schedule: Q04DX003 (ip), vehicle: saline)?
Its survivor count is 0 of 6.

And the survivor count [2]?
Its survivor count is 0 of 6.

What about the survivor count (dose: 400.0 mg/kg/injection, schedule: Q04DX003 (ip), vehicle: saline) of the same molecule?
Its survivor count is 0 of 6.

With `Cc1[nH]c(=O)[nH]c(=O)c1NCCO` as the molecule, how does the survivor count (dose: 100.0 mg/kg/injection, schedule: Q01DX009 (ip), vehicle: water) read?
The survivor count was 6 of 6.

What about the survivor count (dose: 200.0 mg/kg/injection, schedule: Q01DX009 (ip), vehicle: water) of the same molecule?
Its survivor count is 6 of 6.

And the survivor count (dose: 400.0 mg/kg/injection, schedule: Q01DX009 (ip), vehicle: water)?
Its survivor count is 6 of 6.

For `CC(CCCSC(=N)N)SC(=N)N` (centres undefined), which survivor count [3] is on record?
Its survivor count is 2 of 6.

How did the survivor count [1] turn out when `CCCCCCOc1cccc(OCCCC[N+]2(CC)CCCCC2)c1` was run?
The survivor count was 0 of 6.

And the survivor count [4]?
Its survivor count is 0 of 6.

What does the source list for `NC(=Nc1ccc(Cl)cc1)/N=C(/N)N1CCN(/C(N)=N/C(N)=Nc2ccc(Cl)cc2)CC1`?
T/C [4]: 133 and 140 % of control; survivor count [5]: 6 of 6; T/C [2]: 130 % of control; survivor count (dose: 225.0 mg/kg/injection, schedule: Q01DX001 (ip), vehicle: Klucel (hydroxypropylcellulose) (HPC)): 2 of 6; survivor count (dose: 335.0 mg/kg/injection, schedule: Q01DX001 (ip), vehicle: Klucel (hydroxypropylcellulose) (HPC)): 0 of 6

Which survivor count [6] does the source give for `CCN(C)c1ccc(/C=C/c2ccnc3ccccc23)cc1` here?
Its survivor count is 6 of 6.

And the survivor count (dose: 100.0 mg/kg/injection, schedule: Q01DX009 (ip), vehicle: saline with Tween-80)?
The survivor count was 6 of 6.

What about the survivor count [7] of the same molecule?
Its survivor count is 6 of 6.

How did the T/C (dose: 20.0 mg/kg/injection, schedule: Q01DX009 (ip), vehicle: saline) turn out when `COc1cc2c(cc1OC)C(NC(C)=O)N(C)c1c-2ccc2cc3c(cc12)OCO3` (centres undefined) was run?
Its T/C is 131 and 145 % of control.

And the T/C (dose: 40.0 mg/kg/injection, schedule: Q01DX009 (ip), vehicle: saline)?
The T/C was 140 % of control.

And the T/C (dose: 80.0 mg/kg/injection, schedule: Q01DX009 (ip), vehicle: saline)?
The T/C was 131 % of control.

And the survivor count (dose: 120.0 mg/kg/injection, schedule: Q01DX009 (ip), vehicle: saline)?
The survivor count was 6 of 6.

And the survivor count (dose: 240.0 mg/kg/injection, schedule: Q01DX009 (ip), vehicle: saline)?
The survivor count was 3 of 6 and 5 of 6.

With `C=CC12COC(=O)C(=C)C1C1OC(=O)C(=C)C1C(O)C2` (centres undefined) as the molecule, how does the T/C (dose: 2.5 mg/kg/injection, schedule: Q01DX009 (ip), vehicle: saline + alcohol) read?
The T/C was 131 % of control.

And the T/C (dose: 3.0 mg/kg/injection, schedule: Q01DX010 (ip), vehicle: carboxymethylcellulose (CMC))?
Its T/C is 126 % of control [5 of 6 alive].

And the T/C (dose: 4.0 mg/kg/injection, schedule: Q01DX009 (ip), vehicle: water)?
The T/C was 145 % of control.

And the T/C (dose: 5.0 mg/kg/injection, schedule: Q01DX009 (ip), vehicle: saline + alcohol)?
The T/C was 136 % of control.

And the survivor count (dose: 7.0 mg/kg/injection, schedule: Q01DX010 (ip), vehicle: carboxymethylcellulose (CMC))?
Its survivor count is 3 of 6.

And the survivor count (dose: 10.6 mg/kg/injection, schedule: Q01DX010 (ip), vehicle: carboxymethylcellulose (CMC))?
Its survivor count is 2 of 6.

What about the survivor count (dose: 16.0 mg/kg/injection, schedule: Q01DX010 (ip), vehicle: carboxymethylcellulose (CMC)) of the same molecule?
The survivor count was 0 of 6.

And the T/C (dose: 20.0 mg/kg/injection, schedule: Q01DX009 (ip), vehicle: saline + alcohol)?
The T/C was 127 % of control.

What about the survivor count (dose: 24.0 mg/kg/injection, schedule: Q01DX010 (ip), vehicle: carboxymethylcellulose (CMC)) of the same molecule?
The survivor count was 0 of 6.

How did the survivor count (dose: 400.0 mg/kg/injection, schedule: Q04DX003 (ip), vehicle: other) turn out when `COc1ccc(C(=O)C(O)c2ccccc2)cc1` (centres undefined) was run?
The survivor count was 6 of 6.

Which survivor count [5] does the source give for `CC(N)Cc1c(Cl)cc(N(C)C)cc1Cl` (centres undefined) here?
The survivor count was 0 of 6.

What about the survivor count [8] of the same molecule?
Its survivor count is 0 of 6.

And the survivor count [3]?
The survivor count was 0 of 6.

For `CC1CN(Cc2cccc(C#N)c2)CC(C)N1` (centres undefined), which survivor count (dose: 200.0 mg/kg/injection, schedule: Q04DX003 (ip), vehicle: water) is on record?
Its survivor count is 2 of 6.

How did the survivor count (dose: 12.5 mg/kg/injection, schedule: Q01DX009 (ip), vehicle: saline with Tween-80) turn out when `COC(=O)C(Cc1ccc(N(CCCl)CCCl)cc1)N=NNc1nc[nH]c1C(N)=O` (centres undefined) was run?
Its survivor count is 6 of 6.

And the T/C (dose: 21.0 mg/kg/injection, schedule: Q04DX003 (ip), vehicle: saline)?
The T/C was 145 % of control.

What about the survivor count (dose: 25.0 mg/kg/injection, schedule: Q01DX009 (ip), vehicle: saline with Tween-80) of the same molecule?
Its survivor count is 6 of 6.

What about the survivor count [6] of the same molecule?
Its survivor count is 6 of 6.

What about the survivor count (dose: 75.0 mg/kg/injection, schedule: Q04DX003 (ip), vehicle: saline) of the same molecule?
The survivor count was 6 of 6.

`C=C(CNC(C)(C)C)C(=O)c1ccccc1` was tested. Which survivor count [1] did it give?
The survivor count was 2 of 6.

For `COc1cc(-c2ccc(N=Nc3c(O)ccc4ccccc34)c(OC)c2)ccc1N=Nc1ccc2c(S(=O)(=O)O)cc(S(=O)(=O)O)c(N)c2c1O`, which T/C [8] is on record?
The T/C was 127 % of control [5 of 6 alive].

What does the source list for `CCCOP(=S)(N1CC1(C)C)N1CC1(C)C` (centres undefined)?
T/C [6]: 145 % of control; survivor count (dose: 150.0 mg/kg/injection, schedule: Q01DX009 (ip), vehicle: saline with Tween-80): 3 of 6; survivor count [7]: 1 of 6; survivor count (dose: 400.0 mg/kg/injection, schedule: Q04DX003 (ip), vehicle: saline with Tween-80): 0 of 6

`Cc1ccc([I+]c2ccc(C)cc2C)c(C)c1` was tested. Which survivor count (dose: 3.12 mg/kg/injection, schedule: Q01DX009 (ip), vehicle: Klucel (hydroxypropylcellulose) (HPC)) did it give?
The survivor count was 6 of 6.

And the survivor count (dose: 6.0 mg/kg/injection, schedule: Q01DX009 (ip), vehicle: Klucel (hydroxypropylcellulose) (HPC))?
The survivor count was 2 of 6.

And the survivor count (dose: 6.25 mg/kg/injection, schedule: Q01DX009 (ip), vehicle: Klucel (hydroxypropylcellulose) (HPC))?
Its survivor count is 6 of 6.

And the survivor count (dose: 12.0 mg/kg/injection, schedule: Q01DX009 (ip), vehicle: Klucel (hydroxypropylcellulose) (HPC))?
The survivor count was 0 of 6 and 6 of 6.

What about the survivor count (dose: 15.0 mg/kg/injection, schedule: Q04DX003 (ip), vehicle: Klucel (hydroxypropylcellulose) (HPC)) of the same molecule?
The survivor count was 3 of 5.

And the survivor count (dose: 25.0 mg/kg/injection, schedule: Q01DX009 (ip), vehicle: Klucel (hydroxypropylcellulose) (HPC))?
Its survivor count is 1 of 6.

And the survivor count (dose: 25.0 mg/kg/injection, schedule: Q04DX003 (ip), vehicle: Klucel (hydroxypropylcellulose) (HPC))?
Its survivor count is 2 of 6.

What about the survivor count (dose: 50.0 mg/kg/injection, schedule: Q01DX009 (ip), vehicle: Klucel (hydroxypropylcellulose) (HPC)) of the same molecule?
The survivor count was 0 of 6.

And the survivor count (dose: 50.0 mg/kg/injection, schedule: Q04DX003 (ip), vehicle: Klucel (hydroxypropylcellulose) (HPC))?
The survivor count was 0 of 6.

What about the survivor count (dose: 75.0 mg/kg/injection, schedule: Q01DX009 (ip), vehicle: Klucel (hydroxypropylcellulose) (HPC)) of the same molecule?
The survivor count was 0 of 6.

And the survivor count (dose: 100.0 mg/kg/injection, schedule: Q04DX003 (ip), vehicle: Klucel (hydroxypropylcellulose) (HPC))?
Its survivor count is 0 of 6.

What about the survivor count (dose: 200.0 mg/kg/injection, schedule: Q04DX003 (ip), vehicle: Klucel (hydroxypropylcellulose) (HPC)) of the same molecule?
Its survivor count is 0 of 6.

And the survivor count (dose: 400.0 mg/kg/injection, schedule: Q04DX003 (ip), vehicle: Klucel (hydroxypropylcellulose) (HPC))?
Its survivor count is 0 of 6.

Which T/C (dose: 1.25 mg/kg/injection, schedule: Q01DX009 (ip), vehicle: saline) does the source give for `COC[C@H]1OC(=O)c2coc3c2[C@@]1(C)C1=C(C3=O)[C@@H]2CCC(=O)[C@@]2(C)C[C@H]1OC(C)=O` here?
Its T/C is 126 % of control.

How did the survivor count (dose: 100.0 mg/kg/injection, schedule: Q01DX009 (ip), vehicle: Klucel (hydroxypropylcellulose) (HPC)) turn out when `CC1(C)N=C(N)N=C(N)N1c1ccc(-c2ccccc2)cc1` was run?
The survivor count was 0 of 6.

What about the survivor count (dose: 200.0 mg/kg/injection, schedule: Q01DX009 (ip), vehicle: Klucel (hydroxypropylcellulose) (HPC)) of the same molecule?
Its survivor count is 0 of 6.
